Structures can show the parent of a compound that is named as a salt. The list shows a part of the results. Most values come without repeats; read them as rough.
Key:
Test in all cases: reduction in cell viability relative to untreated/vehicle; higher = more growth inhibition
Conditions in all cases: 200 nM; 72 h
M229P = test system: M229P (parental melanoma line)
M229R = test system: M229R (matched melanoma line resistant to BRAF inhibitors)
M238P = test system: M238P (parental melanoma line)
M238R = test system: M238R (matched melanoma line resistant to BRAF inhibitors)
M249P = test system: M249P (parental melanoma line)
M249R = test system: M249R (matched melanoma line resistant to BRAF inhibitors)
UACC62P = test system: UACC62P (parental melanoma line)
UACC62R = test system: UACC62R (matched melanoma line resistant to BRAF inhibitors)

## Oc1ccc(C2CNCCc3c2cc(O)c(O)c3Cl)cc1 (stereo not drawn) [Fenoldopam]
M229P
  reduction in cell viability: < 0%
M229R
  reduction in cell viability: < 0%
M238P
  reduction in cell viability: < 0%
M238R
  reduction in cell viability: < 0%
M249P
  reduction in cell viability: < 0%
M249R
  reduction in cell viability: < 0%
UACC62P
  reduction in cell viability: < 0%
UACC62R
  reduction in cell viability: < 0%

## COc1ccc(-c2ccc3cc(C(=O)O)ccc3c2)cc1C12CC3CC(CC(C3)C1)C2 [Adapalene]
M229P
  reduction in cell viability: < 0%
M229R
  reduction in cell viability: < 0%
M238P
  reduction in cell viability: < 0%
M238R
  reduction in cell viability: < 0%
M249P
  reduction in cell viability: < 0%
M249R
  reduction in cell viability: < 0%
UACC62P
  reduction in cell viability: < 0%
UACC62R
  reduction in cell viability: < 0%

## CCc1cc(Nc2nccc(-c3c(-c4ccc(OC)c(C(=O)Nc5c(F)cccc5F)c4)nc4ccccn34)n2)c(OC)cc1N1CCC(N2CCN(S(C)(=O)=O)CC2)CC1
M229P
  reduction in cell viability: < 0%
M229R
  reduction in cell viability: < 0%
M238P
  reduction in cell viability: < 0%
M238R
  reduction in cell viability: < 0%
M249P
  reduction in cell viability: < 0%
M249R
  reduction in cell viability: < 0%
UACC62P
  reduction in cell viability: < 0%
UACC62R
  reduction in cell viability: < 0%

## COc1ccc(-c2ccc3ncc4c(c3c2)n(-c2ccc(N3CCNCC3)c(C(F)(F)F)c2)c(=O)n4C)cn1
M229P
  reduction in cell viability: 91.7%
M229R
  reduction in cell viability: 94.5%
M238P
  reduction in cell viability: 90.4%
M238R
  reduction in cell viability: 93.2%
M249P
  reduction in cell viability: 91.4%
M249R
  reduction in cell viability: 91.9%
UACC62P
  reduction in cell viability: 91.2%
UACC62R
  reduction in cell viability: 79.4%

## O=C(CO)N1CCC(c2n[nH]c(-c3ccc(Cl)cc3)c2-c2ccncn2)CC1
M229P
  reduction in cell viability: < 0%
M229R
  reduction in cell viability: < 0%
M238P
  reduction in cell viability: < 0%
M238R
  reduction in cell viability: < 0%
M249P
  reduction in cell viability: < 0%
M249R
  reduction in cell viability: < 0%
UACC62P
  reduction in cell viability: < 0%
UACC62R
  reduction in cell viability: < 0%

## Cc1nccn1CC1CCc2c(c3ccccc3n2C)C1=O (stereo not drawn) [Ondansetron]
M229P
  reduction in cell viability: < 0%
M229R
  reduction in cell viability: < 0%
M238P
  reduction in cell viability: < 0%
M238R
  reduction in cell viability: < 0%
M249P
  reduction in cell viability: < 0%
M249R
  reduction in cell viability: < 0%
UACC62P
  reduction in cell viability: < 0%
UACC62R
  reduction in cell viability: < 0%

## COc1cc2nc(N3CCN(C(=O)C4CCCO4)CC3)nc(N)c2cc1OC (stereo not drawn) [Terazosin hydrochloride]
M229P
  reduction in cell viability: < 0%
M229R
  reduction in cell viability: < 0%
M238P
  reduction in cell viability: < 0%
M238R
  reduction in cell viability: < 0%
M249P
  reduction in cell viability: < 0%
M249R
  reduction in cell viability: < 0%
UACC62P
  reduction in cell viability: < 0%
UACC62R
  reduction in cell viability: < 0%

## COc1cc2c(cc1OC)CN(CCc1ccc(NC(=O)c3cccc4c(=O)c5cccc(OC)c5[nH]c34)cc1)CC2 [Elacridar]
M229P
  reduction in cell viability: < 0%
M229R
  reduction in cell viability: < 0%
M238P
  reduction in cell viability: < 0%
M238R
  reduction in cell viability: < 0%
M249P
  reduction in cell viability: < 0%
M249R
  reduction in cell viability: < 0%
UACC62P
  reduction in cell viability: < 0%
UACC62R
  reduction in cell viability: < 0%

## COc1nc(C)nc(Cl)c1NC1=NCCN1 [Moxonidine hydrochloride hydrate]
M229P
  reduction in cell viability: < 0%
M229R
  reduction in cell viability: < 0%
M238P
  reduction in cell viability: < 0%
M238R
  reduction in cell viability: < 0%
M249P
  reduction in cell viability: < 0%
M249R
  reduction in cell viability: < 0%
UACC62P
  reduction in cell viability: < 0%
UACC62R
  reduction in cell viability: < 0%

## COc1cc2ncnc(-n3nc(-c4ccccn4)nc3N)c2cc1OC
M229P
  reduction in cell viability: < 0%
M229R
  reduction in cell viability: < 0%
M238P
  reduction in cell viability: < 0%
M238R
  reduction in cell viability: < 0%
M249P
  reduction in cell viability: < 0%
M249R
  reduction in cell viability: < 0%
UACC62P
  reduction in cell viability: < 0%
UACC62R
  reduction in cell viability: < 0%

## CCC[C@@H]1C[C@@H](C(=O)N[C@@H]([C@H]2O[C@H](SC)[C@H](O)[C@@H](O)[C@H]2O)[C@@H](C)O)N(C)C1 [Lincomycin hydrochloride]
M229P
  reduction in cell viability: < 0%
M229R
  reduction in cell viability: < 0%
M238P
  reduction in cell viability: < 0%
M238R
  reduction in cell viability: < 0%
M249P
  reduction in cell viability: < 0%
M249R
  reduction in cell viability: < 0%
UACC62P
  reduction in cell viability: < 0%
UACC62R
  reduction in cell viability: < 0%

## C[C@@H]1CN(CC(=O)Nc2ccc3c(c2)Cc2cccc(-c4cc(=O)cc(N5CCOCC5)o4)c2S3)C[C@H](C)O1
M229P
  reduction in cell viability: < 0%
M229R
  reduction in cell viability: < 0%
M238P
  reduction in cell viability: < 0%
M238R
  reduction in cell viability: < 0%
M249P
  reduction in cell viability: < 0%
M249R
  reduction in cell viability: < 0%
UACC62P
  reduction in cell viability: < 0%
UACC62R
  reduction in cell viability: < 0%

## CC(O)(C#Cc1ccc2c(c1)N(c1nc(N)ncc1Cl)CC2)c1nccs1 (stereo not drawn)
M229P
  reduction in cell viability: < 0%
M229R
  reduction in cell viability: < 0%
M238P
  reduction in cell viability: < 0%
M238R
  reduction in cell viability: < 0%
M249P
  reduction in cell viability: < 0%
M249R
  reduction in cell viability: < 0%
UACC62P
  reduction in cell viability: < 0%
UACC62R
  reduction in cell viability: < 0%

## O=C(O)c1ccc2c(c1)nc(Nc1cccc(Cl)c1)c1ccncc12 [Silmitasertib]
M229P
  reduction in cell viability: < 0%
M229R
  reduction in cell viability: < 0%
M238P
  reduction in cell viability: < 0%
M238R
  reduction in cell viability: < 0%
M249P
  reduction in cell viability: < 0%
M249R
  reduction in cell viability: 6.69%
UACC62P
  reduction in cell viability: 2.55%
UACC62R
  reduction in cell viability: < 0%

## CC(=O)OCC(CCn1cnc2cnc(N)nc21)COC(C)=O [Famciclovir]
M229P
  reduction in cell viability: < 0%
M229R
  reduction in cell viability: < 0%
M238P
  reduction in cell viability: < 0%
M238R
  reduction in cell viability: < 0%
M249P
  reduction in cell viability: < 0%
M249R
  reduction in cell viability: < 0%
UACC62P
  reduction in cell viability: < 0%
UACC62R
  reduction in cell viability: < 0%

## COc1cc(Nc2ncc(F)c(Nc3ccc4c(n3)N(COP(=O)(O)O)C(=O)C(C)(C)O4)n2)cc(OC)c1OC [Fostamatinib disodium]
M229P
  reduction in cell viability: < 0%
M229R
  reduction in cell viability: < 0%
M238P
  reduction in cell viability: < 0%
M238R
  reduction in cell viability: < 0%
M249P
  reduction in cell viability: < 0%
M249R
  reduction in cell viability: 1.58%
UACC62P
  reduction in cell viability: < 0%
UACC62R
  reduction in cell viability: < 0%

## CN1CCN(c2nc(C3=C(c4c[nH]c5ccccc45)C(=O)NC3=O)c3ccccc3n2)CC1 [Sotrastaurin]
M229P
  reduction in cell viability: < 0%
M229R
  reduction in cell viability: < 0%
M238P
  reduction in cell viability: < 0%
M238R
  reduction in cell viability: < 0%
M249P
  reduction in cell viability: < 0%
M249R
  reduction in cell viability: < 0%
UACC62P
  reduction in cell viability: < 0%
UACC62R
  reduction in cell viability: < 0%

## COc1cc(NCc2ccc3nc(N)nc(N)c3c2C)cc(OC)c1OC [Trimetrexate]
M229P
  reduction in cell viability: 43.5%
M229R
  reduction in cell viability: 65.9%
M238P
  reduction in cell viability: 53.7%
M238R
  reduction in cell viability: < 0%
M249P
  reduction in cell viability: 44.1%
M249R
  reduction in cell viability: 6.35%
UACC62P
  reduction in cell viability: 46.4%
UACC62R
  reduction in cell viability: 45.2%

## CCC[S+]([O-])c1ccc2[nH]c(NC(=O)OC)nc2c1 (stereo not drawn) [Albendazole Oxide]
M229P
  reduction in cell viability: < 0%
M229R
  reduction in cell viability: < 0%
M238P
  reduction in cell viability: < 0%
M238R
  reduction in cell viability: < 0%
M249P
  reduction in cell viability: < 0%
M249R
  reduction in cell viability: < 0%
UACC62P
  reduction in cell viability: < 0%
UACC62R
  reduction in cell viability: < 0%

## COCCCOc1ccnc(C[S+]([O-])c2nc3ccccc3[nH]2)c1C (stereo not drawn) [Rabeprazole]
M229P
  reduction in cell viability: < 0%
M229R
  reduction in cell viability: < 0%
M238P
  reduction in cell viability: < 0%
M238R
  reduction in cell viability: < 0%
M249P
  reduction in cell viability: < 0%
M249R
  reduction in cell viability: < 0%
UACC62P
  reduction in cell viability: < 0%
UACC62R
  reduction in cell viability: < 0%

## COCCCOc1cc(C[C@@H](C[C@H](N)[C@@H](O)C[C@H](C(=O)NCC(C)(C)C(N)=O)C(C)C)C(C)C)ccc1OC [Aliskiren hemifumarate]
M229P
  reduction in cell viability: < 0%
M229R
  reduction in cell viability: < 0%
M238P
  reduction in cell viability: < 0%
M238R
  reduction in cell viability: < 0%
M249P
  reduction in cell viability: < 0%
M249R
  reduction in cell viability: < 0%
UACC62P
  reduction in cell viability: < 0%
UACC62R
  reduction in cell viability: < 0%
